These are yes or no findings as the source states them, for the method shown. In cells and extracts the contact can be indirect.

By UniProt entry, the sequences of proteins in these tests, tags left out.
UniProt P03107: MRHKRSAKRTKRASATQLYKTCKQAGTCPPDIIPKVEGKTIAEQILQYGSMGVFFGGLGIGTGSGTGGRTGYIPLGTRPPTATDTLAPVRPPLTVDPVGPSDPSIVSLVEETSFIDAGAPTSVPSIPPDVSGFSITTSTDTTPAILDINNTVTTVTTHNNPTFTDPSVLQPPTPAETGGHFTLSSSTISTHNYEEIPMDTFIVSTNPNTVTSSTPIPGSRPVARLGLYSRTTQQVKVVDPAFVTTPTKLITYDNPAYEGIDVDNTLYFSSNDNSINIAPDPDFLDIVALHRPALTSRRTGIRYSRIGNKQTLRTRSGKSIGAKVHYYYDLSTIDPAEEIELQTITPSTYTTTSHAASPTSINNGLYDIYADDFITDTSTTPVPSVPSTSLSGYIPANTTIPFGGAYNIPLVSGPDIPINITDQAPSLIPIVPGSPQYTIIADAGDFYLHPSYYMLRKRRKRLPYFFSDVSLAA
UniProt P52732: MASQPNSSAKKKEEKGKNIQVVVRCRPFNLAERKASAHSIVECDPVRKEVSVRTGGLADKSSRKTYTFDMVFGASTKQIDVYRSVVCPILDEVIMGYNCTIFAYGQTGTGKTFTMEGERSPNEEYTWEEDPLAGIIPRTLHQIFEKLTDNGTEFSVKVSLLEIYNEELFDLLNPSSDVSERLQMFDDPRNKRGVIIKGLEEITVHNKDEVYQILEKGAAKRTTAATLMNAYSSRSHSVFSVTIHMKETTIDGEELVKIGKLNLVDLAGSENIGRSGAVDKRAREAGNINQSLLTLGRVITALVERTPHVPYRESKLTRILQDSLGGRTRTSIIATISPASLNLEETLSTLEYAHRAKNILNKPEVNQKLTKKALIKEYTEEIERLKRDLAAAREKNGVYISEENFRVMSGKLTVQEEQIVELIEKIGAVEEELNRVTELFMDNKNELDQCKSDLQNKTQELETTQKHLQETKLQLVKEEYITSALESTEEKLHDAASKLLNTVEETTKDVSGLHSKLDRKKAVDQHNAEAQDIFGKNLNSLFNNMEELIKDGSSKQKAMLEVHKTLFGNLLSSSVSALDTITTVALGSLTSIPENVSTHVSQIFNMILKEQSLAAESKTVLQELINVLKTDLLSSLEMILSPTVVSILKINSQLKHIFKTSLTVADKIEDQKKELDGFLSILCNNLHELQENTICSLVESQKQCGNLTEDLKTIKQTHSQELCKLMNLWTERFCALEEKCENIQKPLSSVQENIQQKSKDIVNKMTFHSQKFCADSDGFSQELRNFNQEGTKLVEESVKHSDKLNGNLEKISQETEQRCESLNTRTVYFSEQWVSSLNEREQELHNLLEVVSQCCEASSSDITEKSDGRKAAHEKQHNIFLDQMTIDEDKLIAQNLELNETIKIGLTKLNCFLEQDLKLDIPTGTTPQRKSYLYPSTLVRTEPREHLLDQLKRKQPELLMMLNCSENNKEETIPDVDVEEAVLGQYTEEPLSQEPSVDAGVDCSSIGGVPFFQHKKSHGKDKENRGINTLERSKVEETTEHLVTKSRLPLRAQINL

For this experiment, the target named is HA-tagged HPV16 L2 (HPV16) (UniProt P03107). Put plainly: co-IP; lysates of transfected 293TT cells (1% NP-40 Tris-NaCl, pH 8.0) on anti-HA magnetic beads, 1 h at 4°C, washed 5x; blot with anti-FLAG and anti-HA; cells with or without Kif11 inhibitor (1.5 µM) 1 or 2 h before harvest.

Turning to “FLAG-tagged Kif11 (from UniProt P52732 1-1056)”, the binding result was “no binding”.

The values above are taken from article PMC11784366.
